Laboratory results reported in PubChem BioAssay AID328 (DTP/NCI, 2004).
The list does not hold the whole screen: it gathers tests that were run many times, whatever their T/C, doses with no T/C, and many T/C values between a quarter and a half above the control. Other doses and runs of a compound stand elsewhere. T/C gives the treated animals as a percentage of the vehicle group. Some entries give survivors of the animals treated and no T/C: the source files T/C as zero there, which appears to mark a toxic dose or a test without result, not a measured value. Some survivor counts are full or nearly so, which does not show that the dose was tolerated: the source hardly ever lists a survival T/C far under the control, and the zero likely stands for such cases as well. Survivors were counted at the toxicity check, usually on the fifth day, unless a day is given; later deaths do not show. Schedule codes are those of the source, read here as Q, the interval in days (D) or hours (H), X, the number of doses. Some structures stand for samples that the source files as different forms (salt, stereo form or complex); doses refer to the form tested. Some entries were tested several times; their values stand side by side, smallest first. Where survival is the endpoint, this PubChem deposit counts one and a half times the control or more as active, and values a quarter to a half above the control carry no call in these data; other NCI protocols may use other cut-offs. Some T/C values are followed by the survivors on the day toxicity was checked, most often the fifth; without a count, all were alive then. Additions like (4×) count equal records among those shown.

System: BDF1 mice, P388 leukemia ip, median survival T/C
Test: NCI In Vivo Anticancer Drug Screen. Data for tumor model P388 Leukemia (intraperitoneal) in B6D2F1 (BDF1) mice
Details: T/C endpoint: median survival time, higher T/C = longer survival
Method in brief: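 Compound-treated tumour-bearing mice were compared with vehicle-treated controls. Survival was recorded, and the value is the treated-group measurement divided by the control-group measurement (T/C).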

[1] = dose: 40.0 mg/kg/injection, schedule: Q01DX009 (ip), vehicle: water

SMILES: COc1cc2c[n+](C)c3c4cc5c(cc4ccc3c2cc1OC)OCO5
- T/C (dose: 40.0 mg/kg/injection, schedule: Q01DX009 (ip), vehicle: Klucel (hydroxypropylcellulose) (HPC), evaluated on day 35): 137 % of control
- survivor count (dose: 40.0 mg/kg/injection, schedule: Q01DX009 (ip), vehicle: Klucel (hydroxypropylcellulose) (HPC)): 6 of 6
- T/C (dose: 40.0 mg/kg/injection, schedule: Q01DX009 (ip), vehicle: saline): 150, 171, 172, 200 % of control
- T/C [1]: 90 and 178 % of control [5 of 6 alive]
- survivor count [1]: 2 of 6, 5 of 6, 7 of 8, 6 of 6
- T/C (dose: 40.0 mg/kg/injection, schedule: Q04DX003 (ip), vehicle: saline): 145 % of control
- T/C (dose: 50.0 mg/kg/injection, schedule: Q01DX001 (ip), vehicle: Klucel (hydroxypropylcellulose) (HPC)): 93 [2 of 3 alive], 99, 125, 140, 143, 148, 150, 151, 153 (2×), 158, 159 (2×), 160, 161, 162, 166, 166 [5 of 6 alive], 168, 169, 171 (2×), 174, 175, 176, 178, 181, 183 (2×), 188 % of control
- survivor count (dose: 50.0 mg/kg/injection, schedule: Q01DX009 (ip), vehicle: water): 7 of 8
- T/C (dose: 60.0 mg/kg/injection, schedule: Q04DX002 (ip), vehicle: Klucel (hydroxypropylcellulose) (HPC), evaluated on day 30): 124 (2×), 125, 126, 128, 129, 144, 149, 154, 160, 161, 162, 166, 168 (2×), 169, 170, 173, 182, 182 [5 of 6 alive], 184, 185, 186, 205, 207 (2×), 208, 216 % of control
- T/C (dose: 60.0 mg/kg/injection, schedule: Q04DX002 (ip), vehicle: Klucel (hydroxypropylcellulose) (HPC), evaluated on day 35): 152 % of control
- survivor count (dose: 60.0 mg/kg/injection, schedule: Q04DX002 (ip), vehicle: Klucel (hydroxypropylcellulose) (HPC)): 3 of 3
- T/C (dose: 60.0 mg/kg/injection, schedule: Q04DX003 (ip), vehicle: Klucel (hydroxypropylcellulose) (HPC), evaluated on day 30): 104, 111, 129, 138, 150, 152, 153 (2×), 155, 156, 162, 168, 169, 177 (2×), 178, 180, 183, 185 (2×), 187, 190 (3×), 191, 200 (2×), 214, 218, 238, 260 % of control
- T/C (dose: 60.0 mg/kg/injection, schedule: Q04DX003 (ip), vehicle: Klucel (hydroxypropylcellulose) (HPC), evaluated on day 35): 205 % of control
- T/C (dose: 80.0 mg/kg/injection, schedule: Q01DX005 (ip), vehicle: Klucel (hydroxypropylcellulose) (HPC), evaluated on day 30): 90, 91 (2×), 92, 95 [5 of 6 alive], 102 (2×), 107 (2×), 117, 120, 122, 123, 125, 128, 131, 133, 136, 143, 149, 159, 175, 183, 186, 217 % of control
- T/C (dose: 80.0 mg/kg/injection, schedule: Q01DX005 (ip), vehicle: Klucel (hydroxypropylcellulose) (HPC), evaluated on day 35): 88 % of control
- survivor count (dose: 80.0 mg/kg/injection, schedule: Q01DX005 (ip), vehicle: Klucel (hydroxypropylcellulose) (HPC)): 2 of 3, 3 of 3, 6 of 6
- T/C (dose: 80.0 mg/kg/injection, schedule: Q01DX009 (ip), vehicle: Klucel (hydroxypropylcellulose) (HPC), evaluated on day 30): 86, 87, 89, 91, 97 (2×), 98 (2×), 104, 107, 109, 110, 114, 119, 137, 138, 139, 170, 188 % of control
- T/C (dose: 80.0 mg/kg/injection, schedule: Q01DX009 (ip), vehicle: Klucel (hydroxypropylcellulose) (HPC), evaluated on day 35): 92 % of control
- survivor count (dose: 80.0 mg/kg/injection, schedule: Q01DX009 (ip), vehicle: Klucel (hydroxypropylcellulose) (HPC)): 3 of 6, 2 of 3, 4 of 6, 3 of 3, 6 of 6
- T/C (dose: 80.0 mg/kg/injection, schedule: Q01DX009 (ip), vehicle: saline): 136 % of control
- survivor count (dose: 80.0 mg/kg/injection, schedule: Q01DX009 (ip), vehicle: water): 4 of 8
- T/C (dose: 100.0 mg/kg/injection, schedule: Q01DX001 (ip), vehicle: Klucel (hydroxypropylcellulose) (HPC)): 108, 110, 112, 120, 137, 143 [2 of 3 alive], 144, 151, 152, 157, 162, 165, 169, 171, 172, 174, 180 (2×), 181, 182, 186, 187, 188 (2×), 190, 191, 195, 199, 203, 225 % of control
- T/C (dose: 100.0 mg/kg/injection, schedule: Q04DX002 (ip), vehicle: Klucel (hydroxypropylcellulose) (HPC)): 118, 141, 146, 155 % of control
- survivor count (dose: 120.0 mg/kg/injection, schedule: Q01DX009 (ip), vehicle: saline): 6 of 6
- T/C (dose: 120.0 mg/kg/injection, schedule: Q04DX002 (ip), vehicle: Klucel (hydroxypropylcellulose) (HPC), evaluated on day 30): 116, 122, 124, 125 (2×), 126, 138, 139, 143, 153, 158, 163, 172 (2×), 176, 178, 179, 181, 185, 189, 194, 195, 200, 239, 240, 252, 258, 261 % of control
- T/C (dose: 120.0 mg/kg/injection, schedule: Q04DX002 (ip), vehicle: Klucel (hydroxypropylcellulose) (HPC), evaluated on day 35): 173 % of control
- survivor count (dose: 120.0 mg/kg/injection, schedule: Q04DX002 (ip), vehicle: Klucel (hydroxypropylcellulose) (HPC)): 3 of 3
- T/C (dose: 120.0 mg/kg/injection, schedule: Q04DX003 (ip), vehicle: Klucel (hydroxypropylcellulose) (HPC), evaluated on day 30): 125, 127, 129, 131, 132, 140, 145 (2×), 146, 147, 149, 159, 163 (2×), 169, 170, 171 (2×), 172 (2×), 175, 182, 186, 187 (2×), 189, 203, 204, 217, 230, 256 % of control
- T/C (dose: 120.0 mg/kg/injection, schedule: Q04DX003 (ip), vehicle: Klucel (hydroxypropylcellulose) (HPC), evaluated on day 35): 272 % of control
- T/C (dose: 120.0 mg/kg/injection, schedule: Q04DX003 (ip), vehicle: Klucel (hydroxypropylcellulose) (HPC), evaluated on day 60): 178 % of control
- T/C (dose: 167.0 mg/kg/injection, schedule: Q04DX003 (ip), vehicle: other): 139 % of control
- T/C (dose: 200.0 mg/kg/injection, schedule: Q01DX001 (ip), vehicle: Klucel (hydroxypropylcellulose) (HPC)): 113, 131, 135, 137, 140 [5 of 6 alive], 142, 146, 150, 155 (2×), 157, 161, 166, 170, 172, 177, 182, 186, 187 (2×), 196, 198, 200, 202, 205, 213, 221, 230, 245, 263 % of control
- T/C (dose: 200.0 mg/kg/injection, schedule: Q04DX002 (ip), vehicle: Klucel (hydroxypropylcellulose) (HPC)): 137, 150, 153, 190 % of control
- survivor count (dose: 240.0 mg/kg/injection, schedule: Q01DX009 (ip), vehicle: saline): 2 of 6 and 3 of 6
- T/C (dose: 240.0 mg/kg/injection, schedule: Q04DX002 (ip), vehicle: Klucel (hydroxypropylcellulose) (HPC), evaluated on day 30): 93, 98, 99, 102, 105, 117, 122, 124 [5 of 6 alive], 126 (2×), 129, 131, 137 (2×), 138, 139, 140, 145 (3×), 150, 157, 159, 172, 184, 193, 211 % of control
- T/C (dose: 240.0 mg/kg/injection, schedule: Q04DX002 (ip), vehicle: Klucel (hydroxypropylcellulose) (HPC), evaluated on day 35): 162 % of control
- survivor count (dose: 240.0 mg/kg/injection, schedule: Q04DX002 (ip), vehicle: Klucel (hydroxypropylcellulose) (HPC)): 3 of 6 and 3 of 3
- T/C (dose: 240.0 mg/kg/injection, schedule: Q04DX003 (ip), vehicle: Klucel (hydroxypropylcellulose) (HPC), evaluated on day 30): 93, 94, 96, 104, 108, 118, 119, 123, 125, 126, 128, 131, 136 (2×), 139, 142, 143 (2×), 145 (2×), 147, 154, 158 [5 of 6 alive], 159, 162, 166, 169, 186, 189, 198, 211 % of control
- T/C (dose: 240.0 mg/kg/injection, schedule: Q04DX003 (ip), vehicle: Klucel (hydroxypropylcellulose) (HPC), evaluated on day 35): 144 % of control
- survivor count (dose: 320.0 mg/kg/injection, schedule: Q04DX003 (ip), vehicle: other): 8 of 8
- T/C (dose: 400.0 mg/kg/injection, schedule: Q01DX001 (ip), vehicle: Klucel (hydroxypropylcellulose) (HPC)): 88, 98, 100, 106 [5 of 6 alive], 110, 121, 125, 126, 127, 133 (2×), 135, 137 [2 of 3 alive], 138, 143, 146 [5 of 6 alive], 151, 154, 155, 158, 161, 168, 170, 190, 194, 208, 210, 216, 217, 224 % of control
- T/C (dose: 400.0 mg/kg/injection, schedule: Q04DX002 (ip), vehicle: Klucel (hydroxypropylcellulose) (HPC)): 96, 128, 136, 175 % of control
- T/C (dose: 800.0 mg/kg/injection, schedule: Q04DX002 (ip), vehicle: Klucel (hydroxypropylcellulose) (HPC)): 136 % of control
